No constants are given. Whether binding was seen depends on the method and setting. Some binding calls cover weakened binding; strength is not graded here. Sequences can lack the tags named with a protein.
T1: recombinant His-tagged murine Notch2 NRR domain, expressed and purified in house (mouse) (UniProt O35516)
T1 sequence (looked up): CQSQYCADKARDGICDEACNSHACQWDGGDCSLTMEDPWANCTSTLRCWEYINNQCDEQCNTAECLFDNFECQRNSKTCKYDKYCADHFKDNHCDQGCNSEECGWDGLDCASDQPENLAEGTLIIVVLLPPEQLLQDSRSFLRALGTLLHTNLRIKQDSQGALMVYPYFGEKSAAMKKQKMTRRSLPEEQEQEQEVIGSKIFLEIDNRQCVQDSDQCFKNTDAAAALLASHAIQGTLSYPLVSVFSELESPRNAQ

T2: recombinant His-tagged human Notch2 NRR domain, expressed and purified in house (human) (UniProt Q04721)
T2 sequence (looked up): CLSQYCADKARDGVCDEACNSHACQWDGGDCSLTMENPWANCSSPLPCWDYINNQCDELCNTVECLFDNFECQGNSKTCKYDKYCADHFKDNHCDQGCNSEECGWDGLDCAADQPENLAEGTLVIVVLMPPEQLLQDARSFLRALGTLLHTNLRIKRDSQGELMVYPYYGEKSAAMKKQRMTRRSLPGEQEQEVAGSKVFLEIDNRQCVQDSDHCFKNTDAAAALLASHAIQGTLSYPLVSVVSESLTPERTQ


Tests used:
[1] = biological target: T1, recombinant His-tagged murine Notch2 NRR domain, expressed and purified in house (mouse); assay: BLI, antibody on anti-human IgG Fc biosensors, Notch2 NRR protein at 1000 nM to 31 nM
[2] = biological target: T2, recombinant His-tagged human Notch2 NRR domain, expressed and purified in house (human); assay: as above
[3] = biological target: T1, recombinant His-tagged murine Notch2 NRR domain, expressed and purified in house (mouse); assay: ELISA, antigen coated at 1 µg/mL, antibody serially diluted from 666 nM
[4] = biological target: T2, recombinant His-tagged human Notch2 NRR domain, expressed and purified in house (human); assay: as above
[5] = biological target: T1, recombinant His-tagged murine Notch2 NRR domain, expressed and purified in house (mouse); assay: ELISA, antigen coated at 1 µg/mL, antibody serially diluted from 200 nM
[6] = biological target: T2, recombinant His-tagged human Notch2 NRR domain, expressed and purified in house (human); assay: as above

| Binder | binding [1] | binding [2] | binding [3] | binding [4] | binding [5] | binding [6] |
| --- | --- | --- | --- | --- | --- | --- |
| PRO034 (antibody, human IgG1, kappa, L234A L235A, V domains shown) VH: EVQLVESGGGLVQPGGSLRLSCAASGYSFTSYGMSWVRQAPGKGLEWVSYIYPYSGATYYADSVKGRFTISADTSKNTAYLQMNSLRAEDTAVYYCARHSGYYRISSAMDVWGQGTLVTVSS VL: DIQMTQSPSSLSASVGDRVTITCRASQSISSYLAWYQQKPGKAPKLLIYGASSRASGVPSRFSGSGSGTDFTLTISSLQPEDFATYYCQQYYSSPLTFGQGTKVEIKR | binds | binds | binds | binds | – | – |
| PRO035 (antibody, human IgG1, kappa, L234A L235A, V domains shown) VH: EVQLVESGGGLVQPGGSLRLSCAASGYTFSSYGMSWVRQAPGKGLEWVSYIYPYSGATYYADSVKGRFTISADTSKNTAYLQMNSLRAEDTAVYYCARHSGYYRISSAMDVWGQGTLVTVSS VL: DIQMTQSPSSLSASVGDRVTITCRASQSNRRFLAWYQQKPGKAPKLLIYGASSRASGVPSRFSGSGSGTDFTLTISSLQPEDFATYYCQQYYISPLTFGQGTKVEIKR | binds | binds | – | – | binds | binds |

More lines, now with the values ahead:

| binding [1] | binding [2] | binding [3] | binding [4] | binding [5] | binding [6] | Binder |
| --- | --- | --- | --- | --- | --- | --- |
| binds | binds | binds | binds | – | – | PRO036 (antibody, human IgG1, kappa, L234A L235A, V domains shown) VH: EVQLVESGGGLVQPGGSLRLSCAASGYTFSSYGMSWVRQAPGKGLEWVSYIYPYSGATYYADSVKGRFTISADTSKNTAYLQMNSLRAEDTAVYYCARHSGYYRISSAMDVWGQGTLVTVSS VL: DIQMTQSPSSLSASVGDRVTITCRASQSVRSFLAWYQQKPGKAPKLLIYRASIRASGVPSRFSGSGSGTDFTLTISSLQPEDFATYYCQQYYISPWTFGQGTKVEIKR |
| binds | binds | – | – | binds | binds | PRO037 (antibody, human IgG1, kappa, L234A L235A, V domains shown) VH: EVQLVESGGGLVQPGGSLRLSCAASGYTFSSYGMSWVRQAPGKGLEWVSYIYPYSGATYYADSVKGRFTISADTSKNTAYLQMNSLRAEDTAVYYCARHSGYYRISSAMDVWGQGTLVTVSS VL: DIQMTQSPSSLSASVGDRVTITCRASQSNRRFLAWYQQKPGKAPKLLIYGASSRASGVPSRFSGSGSGTDFTLTISSLQPEDFATYYCQQYYISPLTFGQGTKVEIKR |

Source: patent US20250353906A1
